Measurements: the supplement of paper PMC12823440, “Inhibitors supercharge kinase turnover through native proteolytic circuits” (Nature, 2025)
Structures can show the parent of a compound that is named as a salt. The list shows a part of the results. The calls rarely recur for the same compound in another form.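 In K562 cells expressing nanoluciferase-fused kinases, luminescence was recorded at 4 h intervals between 2 and 18 h, normalized as percent of control with DMSO at 100% and a positive control at 0%. A significant (2 sigma) signal drop marks a time point as decreased. The authors' rule for a hit is not shown and takes in more than the number of time points.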

Amino acid sequences for entries named in this document (tags omitted). A change or cut given only in a name is not applied to a line headed by its entry.
UniProt P43403: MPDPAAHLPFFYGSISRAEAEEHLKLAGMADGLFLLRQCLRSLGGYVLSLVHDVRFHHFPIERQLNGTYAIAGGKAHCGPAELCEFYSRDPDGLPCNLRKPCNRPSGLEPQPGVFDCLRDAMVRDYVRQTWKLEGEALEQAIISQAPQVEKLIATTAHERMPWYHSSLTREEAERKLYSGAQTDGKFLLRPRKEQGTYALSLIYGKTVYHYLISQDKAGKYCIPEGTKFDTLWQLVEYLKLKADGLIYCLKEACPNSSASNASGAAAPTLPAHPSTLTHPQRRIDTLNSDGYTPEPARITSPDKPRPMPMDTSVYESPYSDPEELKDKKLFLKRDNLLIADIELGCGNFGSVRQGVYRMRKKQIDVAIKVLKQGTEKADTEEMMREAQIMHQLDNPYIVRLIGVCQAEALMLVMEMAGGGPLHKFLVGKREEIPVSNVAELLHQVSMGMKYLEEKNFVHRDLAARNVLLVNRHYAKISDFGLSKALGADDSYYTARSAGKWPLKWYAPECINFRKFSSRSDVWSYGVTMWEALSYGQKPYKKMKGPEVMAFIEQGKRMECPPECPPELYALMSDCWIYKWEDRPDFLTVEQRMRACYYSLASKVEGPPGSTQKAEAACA

These compounds were tested against ZAP70 (UniProt P43403) (assay: number of time points (of 5) at which kinase-Nluc abundance scored as decreased, DMSO-normalised (count); higher = more persistent destabilization). Details: K562; 2-18 h.

Compound | number of time points
O=c1c(O)c(-c2ccc(O)c(O)c2)oc2cc(O)cc(O)c12 [Quercetin (dihydrate)] (10 µM) | 0
Cc1c(C(=O)N2CCOc3ccc(-c4ccc(N)nc4)cc3C2)ccc(S(C)(=O)=O)c1F (10 µM) | 0
Cc1cc(CS(=O)(=O)c2ccccc2)cc(OCc2ccc(CN3CCC[C@@H]3CO)cc2)c1 [PF-543 (Citrate)] (10 µM) | 0
N#CC(=Cc1ccc(O)c(O)c1)C(=O)NCc1ccccc1 (mixture of isomers) (10 µM) | 0
COc1cc(C(=O)NC2CCN(C)CC2)c(F)cc1Nc1ncc2c(n1)N(C1CCCC1)CC(F)(F)C(=O)N2C [TAK-960 (dihydrochloride)] (2.5 µM) | 0
CCCCC[C@H](O)CC(=O)CCc1ccc(O)c(OC)c1 [[6]-Gingerol] (10 µM) | 0
COc1cc2ncnc(Nc3cccc(O)c3)c2cc1OC (10 µM) | 0
C[C@H](NC(=O)/C(C#N)=C/c1cccc(Br)n1)c1ccccc1 (2.5 µM) | 0
C[C@H](CN(C)C)Oc1nc(Nc2cc3cccc(Cl)c3cn2)cnc1C#N (10 µM) | 0
COc1cc2c(Nc3ccc(NC(=O)c4ccccc4)cc3)ncnc2cc1OCCCN1CCOCC1 (10 µM) | 0
Cc1ncc(-c2ccnc(Nc3ccc(S(C)(=O)=O)cc3)n2)n1C(C)C (2.5 µM) | 0
COc1cc2ncnc(Nc3cccc(Cl)c3F)c2cc1OC(=O)N1CCN(C)C[C@H]1C [Zorifertinib] (10 µM) | 0
CC(C)(C)c1cc(NC(=O)Nc2ccc(-c3cn4c(n3)sc3cc(OCCN5CCOCC5)ccc34)cc2)no1 [Quizartinib] (10 µM) | 0
CC(C)c1ccc2oc3nc(N)c(C(=O)O)cc3c(=O)c2c1 [Amlexanox] (10 µM) | 0
Cc1ccc(NC(=O)c2cccc(N(C)C)c2)cc1NC(=O)c1ccc(O)cc1 (10 µM) | 0
C=CC(=O)N1CC[C@H](n2nc(C#Cc3cc(OC)cc(OC)c3)c3c(N)ncnc32)C1 [Futibatinib] (10 µM) | 0
CNC(=O)c1cc(Oc2ccc(NC(=O)Nc3cc(C(C)(C)C)nn3-c3ccc4ncccc4c3)c(F)c2)ccn1 [Rebastinib] (2.5 µM) | 0
COc1nccc(-c2c(-c3ccc(F)cc3)ncn2C2CCC(O)CC2)n1 (centres undefined) (10 µM) | 0
O=c1c(-c2ccc(O)cc2)coc2cc(O)cc(O)c12 [Genistein] (10 µM) | 0
CC#CC(=O)N[C@H]1CCCN(c2c(F)cc(C(N)=O)c3[nH]c(C)c(C)c23)C1 [Branebrutinib] (10 µM) | 0

Reprinted at random: 2 entries already listed
Compound | number of time points
CC(C)c1ccc2oc3nc(N)c(C(=O)O)cc3c(=O)c2c1 [Amlexanox] (10 µM) | 0
Cc1ccc(NC(=O)c2cccc(N(C)C)c2)cc1NC(=O)c1ccc(O)cc1 (10 µM) | 0

(continued)

Compound | number of time points
CCn1c(=O)c2cc(C(N)=O)c(N)nc2n(C2CC2)c1=O (10 µM) | 0
COc1cc(F)cc([C@@H](CO)NC(=O)[C@@H](C)N2Cc3ccc(-c4nc(NC5CCOCC5)ncc4Cl)cc3C2=O)c1 [ERK1/2 inhibitor 2] (10 µM) | 0
Cc1ccc2c(Nc3ccc(Cl)cc3)nccc2c1Nc1ncccc1-c1ncnc2nc[nH]c12 [Raf inhibitor 1] (2.5 µM) | 0
CCCCNc1ncc(-c2ccc(CN3CCOCC3)cn2)c(NC2CCC(O)CC2)n1 (centres undefined) (10 µM) | 0
CC(C)=CC/C=C(\C)[C@H]1CC[C@]2(C)[C@@H]1[C@H](O)C[C@@H]1[C@@]3(C)CC[C@H](O[C@@H]4O[C@H](CO)[C@@H](O)[C@H](O)[C@H]4O[C@@H]4O[C@H](CO)[C@@H](O)[C@H](O)[C@H]4O)C(C)(C)[C@@H]3CC[C@]12C [Ginsenoside Rg5] (10 µM) | 0
N#Cc1ccc2[nH]c(O)c(-c3ccc(CN4CCOCC4)cn3)c2c1 (10 µM) | 0
Oc1cc(O)cc(/C=C/c2ccc(O)c(O)c2)c1 [Piceatannol] (10 µM) | 2
CC(C)(C)S(=O)(=O)c1cc2c(Nc3ccc4scnc4c3)ncnc2cc1OCCO (2.5 µM) | 0
COc1c(Cl)cc2c([nH]c3cnccc32)c1NC(=O)c1cccnc1C (10 µM) | 0
CC(C)C(=O)Nc1ncc(-c2cc(C(F)F)nn2-c2c(Cl)cccc2Cl)s1 (10 µM) | 0
COc1cc2nc(C)nc(N[C@H](C)c3cc(N)cc(C(F)(F)F)c3)c2cc1O[C@H]1CCOC1 (10 µM) | 0
COc1cc(OC)c(F)c(COc2cnc(Nc3cnn(CCO)c3)nc2)c1F (2.5 µM) | 0
O=c1cc(N2CCOCC2)oc2c(-c3ccccc3)cccc12 (10 µM) | 0
O=C(NOC[C@H](O)CO)c1ccc(F)c(F)c1Nc1ccc(I)cc1F (2.5 µM) | 0
CC(C)(C)c1nc2c3cc[nH]c(=O)c3c3cc(F)ccc3c2[nH]1 [Pyridone 6] (10 µM) | 0
COCc1c(-c2ccc(NC(=O)Nc3cc(C(F)(F)F)ccc3F)c(F)c2)c2c(N)ncnn2c1CN1CCOCC1 (2.5 µM) | 0
COCCOc1cc2nccc(Nc3n[nH]c(C)c3C)c2cc1S(=O)(=O)C(C)(C)C [RIP2 kinase inhibitor 2] (2.5 µM) | 0
Cc1ccc(F)c(NC(=O)Nc2ccc(-c3cccc4[nH]nc(N)c34)cc2)c1 [Linifanib] (2.5 µM) | 0
Cn1nc(C(C)(C)C)cc1NC(=O)Nc1ccc(Oc2ccncc2)cc1 (10 µM) | 0
